These are yes or no findings as the source states them, for the method shown. For some of these results: Binding calls can cover weak binding; strength is not graded here. Where a sequence is shown, tags or fusion partners need not be part of it. For some of these results: In cells and extracts the contact can be indirect.
B1: STRAP-HA (protein, not shown: small tags and cut ends)
chain: MAMRQTPLTCSGHTRPVVDLAFSGITPYGYFLISACKDGKPMLRQGDTGDWIGTFLGHKGAVWGATLNKDATKAATAAADFTAKVWDAVSGDELMTLAHKHIVKTVDFTQDSNYLLTGGQDKLLRIYDLNKPEAEPKEISGHTSGIKKALWCSDDKQILSADDKTVRLWDHATMTEVKSLNFNMSVSSMEYIPEGEILVITYGRSIAFHSAVSLEPIKSFEAPATINSASLHPEKEFLVAGGEDFKLYKYDYNSGEELESYKGHFGPIHCVRFSPDGELYASGSEDGTLRLWQTVVGKTYGLWKCVLPEEDSGELAKPKIGFPETAEEELAEEIASENSDSIYSSTPEVKA
B2: STRAP-Flag (protein, not shown: small tags and cut ends)
chain: B1 chain

Key:
Smad2 = test: co-immunoprecipitation and immunoblot, transfected COS-1 cells
Smad4 = test: as above
Flag-Smad7 = test: as above
Flag-tagged Smad1(AAVA) = test: as above
Myc-Smad7 [1] = test: sequential immunoprecipitation (anti-Flag, Flag peptide elution, anti-Myc), anti-HA blot, COS-1 cells
Myc-Smad7 [2] = test: sequential immunoprecipitation (anti-Flag, Flag peptide elution, anti-Myc), anti-HA blot
Myc-Smad7 [3] = test: sequential immunoprecipitation (restated in the discussion)

Row | Binder | binding (Smad2) | binding (Smad4) | binding (Flag-Smad7) | binding (Flag-tagged Smad1(AAVA)) | binding (Myc-Smad7 [1]) | binding (Myc-Smad7 [2]) | binding (Myc-Smad7 [3])
1 | B1 | binds | no binding | binds | no binding |  |  | 
2 | B2 |  |  |  |  | binds | binds | binds

Source: US6770458
